Data from article doi:10.1101/2023.11.14.567006.
These are yes or no findings as the source states them, for the method shown. In cells and extracts the contact can be indirect. A yes stands for co-enrichment or nearness to the bait. Other partners may have been found.

B1: glycogen branching enzyme (GlgB) (enzyme, UniProt P52981 1-770)
chain: MTYTINADQVHQIVHNLHHDPFEVLGCHPLGDHGKVNQWVIRAYLPTAEAVTVLLPTDRREVIMTTVHHPNFFECVLELEEPKNYQLRITENGHERVIYDPYGFKTPKLTDFDLHVFGEGNHHRIYEKLGAHLMTVDGVKGVYFAVWAPNARNVSILGDFNNWDGRLHQMRKRNNMVWELFIPELGVGTSYKYEIKNWEGHIYEKTDPYGFYQEVRPKTASIVADLDGYQWHDEDWLEARRTSDPLSKPVSVYELHLGSWLHTAYDEPVKTLHGEGVPVEVSEWNTGARFLTYYELVDKLIPYVKELGYTHIELLPIAEHPFDGSWGYQVTGYYAPTSRFGSPEDFMYFVDQCHLNGIGVIIDWVPGHFPKDGHGLAFFDGTHLYEHGDPRKGEHKEWGTLIFNYGRNEVRNFLVANALFWFDKYHIDGMRVDAVASMLYLDYCREEGEWVANEYGGRENLEAADFLRQVNSVVYSYFPGILSIAEESTSWPMVSWPTYVGGLGFNLKWNMGWMHDMLDYFSMDPWFRQFHQNSITFSMWYNHSENYMLALSHDEVVHGKSNMLGKMPGDEWQKYANVRALFTYMFTHPGKKTMFMSMEFGQWSEWNVWGDLEWHLLNFPPHQQLKQFFTELNHLYKNEPALYSNDFDESGFQWIDCSDNRHSVVSFIRRAKNSAEFVVTICNFTPQPHSHYRVGVPVPGFYTELFNSDARQYGGSNMGNLGGKWTEEWSFHEQPYSLDLCLPPLSVLVLKLSQNAEENTVPAEEASNIA
B2: CmpC, subunit of the ABC-type bicarbonate transporter complex BCT1 (protein, UniProt Q55462 1-667)
chain: MSLFVAVDNIDKVFSLTDGGEYIALKGINLEIKKGEFVSLIGHSGCGKSTLLNMIAGLDLPSEGIVTLEGQRIKQPGPDKMVIFQNYSLLPWLTVKQNIALAVDEVMKGASAAERKAIVEEHINLVGLGHAVDKRPGELSGGMKQRVAIARALAIRPKLLLLDEPFGALDALTRGNLQEQLMRICEQYQVTAVMVTHDVDEAVLLSDRIVMLTNGPGSNIGGILEVDIPRPRKRMEVVEHPSYYSLRSEIIYFLNQQKRIKKLRAKKTTAIARHGLEKVNLELGYVPLVACAPLVVAQEKGFFAKHGLDEVSLVRETSWRGIVDGIAGGYLDGAQMPAGMPTWLTAGGYREQSIPVVSALTMTRNGNAITLSKKLYDQGIYTAEDFRQLLLASDGDRHTLGMVHPSSMHNLLLRYWLAAHNINPDRDVHLKTIPPAQMVADLKAGTIDGYCVSEPWNLRASMEGAGFSIATDLEIWQNHPGKVLGVREDWAIAHPNTHVALVKALLEACAYCADPNHEMEIRELLATRQYLSTNIDYIHLGDPEGRTCRLGNPVEYSHHLFFGDQFNRPSRTEHLWMMTQMARWGDIPFPRNWVEILERVCRVGVFSTAARELGYDVNYQRQPIALFDGKVFNADDPIAYLNQTVIHRNFTIAEVHLDNPTPAPVFA
B3: CmpD, subunit of the ABC-type bicarbonate transporter complex BCT1 (protein, UniProt Q55463 1-282)
chain: MQTLKSQRAMPTATPSDQKTTAFLTIENVSKVYPTAKGPYTVLENVNLTVNEGEFICVIGHSGCGKSTLLNMVSGFASPTDGSVQVGGKIITEPGPDRMVVFQNYALLPWLTALENVYIAVDAVHSQKTEAEKRAIAKDHLAMVGLTDSMDKKPGQISGGMKQRVSIARALAIRPEVLILDEPFGALDAITKEELQEELLQIWNDHRCTVLMITHDIDEALFLADRLVMMTNGPHANIGEIMTIPFSRPRDRDRIMEDPTYYQLRNYALDFLYNRFAHDDVA

These binders were tested against C-terminal His8-tagged SbtB (Synechocystis sp. PCC 6803) (assay: affinity purification with mass spectrometry).

binding, binds:
B1
B2
B3
